Source: PubChem BioAssay AID652054 (National Center for Advancing Translational Sciences (NCATS), 2013)
About 9,100 (2.5%) of roughly 360,000 compounds were called active. Inconclusive results, whose numbers are uncertain, are shown with a selection of clear calls. No stated cut-off is given here; in the data, active means max response below about -50%; inconclusive means no clear call, values can overlap the other calls; inactive means above that.

Amino acid sequences for entries named in this document (tags omitted).
UniProt P35462, whole entry, looked up: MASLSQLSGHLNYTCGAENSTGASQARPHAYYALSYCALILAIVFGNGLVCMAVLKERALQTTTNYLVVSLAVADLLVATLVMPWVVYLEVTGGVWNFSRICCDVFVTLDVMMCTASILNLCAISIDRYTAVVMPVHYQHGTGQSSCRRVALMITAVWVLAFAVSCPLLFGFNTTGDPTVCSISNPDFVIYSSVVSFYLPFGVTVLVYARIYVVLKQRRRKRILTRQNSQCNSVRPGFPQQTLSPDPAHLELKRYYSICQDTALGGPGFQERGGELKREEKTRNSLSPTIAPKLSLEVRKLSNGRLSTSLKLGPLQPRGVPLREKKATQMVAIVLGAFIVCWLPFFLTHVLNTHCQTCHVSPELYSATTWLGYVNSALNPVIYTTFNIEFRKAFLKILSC

biological target: D(3) dopamine receptor (Homo sapiens) (UniProt P35462); assay: qHTS of D3 Dopamine Receptor Antagonist: qHTS; settings: D3R cells, DiscoveRx beta-arrestin luminescence, antagonist mode; stronger effect = lower value
Summary of the method: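 Cells plated overnight at 1500 cells/well, then exposed to library compounds with dopamine controls for 90 minutes at 37 degrees C. DiscoveRx reagent added for 30–60 minutes at room temperature; luminescence read, quantitative HTS format.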
On the % scale 0 is the no-effect control and ±100 the full control effect.

Max response, negative = inhibition, active:
CCOC(=O)/C=C/C(=O)Nc1ccccc1-c1ccccc1NC(=O)/C=C/C(=O)OCC -62.3%
COc1ccc(F)cc1C(=O)C1CCCN(Cc2cccn2-c2cccnc2)C1 (stereo unspecified) -95.5%
Clc1ccc(OCCN2CCCCC2)cc1Cl -78.8%
Cc1ccc(-c2cnc(C(O)c3c(C)cccc3C)[nH]2)cc1 (stereo unspecified) -54.7%
O=C(c1ccc(CN2CCc3ccccc3C2)cc1)N1CCCCC1 -72.9%
Clc1ccccc1OCCN1CCC(Cc2ccccc2)CC1 -89.9%
O=C(C=P(c1ccccc1)(c1ccccc1)c1ccccc1)c1ccccc1-c1ccccc1C(=O)C=P(c1ccccc1)(c1ccccc1)c1ccccc1 -89.1%
COc1cccc(NC(=S)N(CCc2ccc(OC)c(OC)c2)Cc2ccccn2)c1 -53.2%
O=C(Nc1ccccc1N1CCOCC1)C1=NN(c2ccccc2)C(=O)CC1 -51.7%
O=C1CCN(Cc2cccnc2)CCN1[C@H](CO)Cc1ccccc1 -66.8%

Max response, negative = inhibition, inconclusive:
O=c1[nH]c2ccc(S(=O)(=O)NCc3ccccn3)cc2s1 -41.6%
CCOc1cc(C2c3c(n[nH]c3C)C(=O)N2c2ccc(Br)cc2)ccc1O (stereo unspecified) -40.6%
COc1ccc(C2N(c3cc(Cl)ccc3OC)C(=O)C3CCCN32)cc1OC (stereo unspecified) -47.1%
O=C1/C(=C/c2cccc([N+](=O)[O-])c2)CCc2ccccc21 -41.4%
O=[N+]([O-])c1ccccc1CN1CCN(Cc2c[nH]c3ccccc23)CC1 -40.6%
Cc1ccccc1NC(=S)N1CCN(c2ccccc2Cl)CC1 -38.6%
O=C(Nc1nc2ccc(Cl)cc2s1)c1ccc(N2CCCCC2)c([N+](=O)[O-])c1 -39.8%
O=c1[nH]c2ccc(S(=O)(=O)N3CCN(c4ccccc4)CC3)cc2[nH]c1=O -32.3%
O=C(CS(=O)(=O)Cc1ccccc1)Nc1nc2ccccc2s1 -30.8%
Cc1ccc(NC(=O)Nc2c(Cl)cccc2Cl)cn1 -32.5%
CCCSC1=C(C#N)C(c2ccccc2C)C(C(=O)OC)C(=O)N1 (stereo unspecified) -40.6%
CC(C)(C)C1=C[C@@H](CO)C[C@@H](CO)C1 -43.6%
CCOc1ccccc1N1CCN(CC(=O)Nc2ccnn2C2CCCC2)CC1 -32.9%
C[n+]1ccc(/C=N/Nc2nc(Cl)c(C#N)c(Cl)c2Cl)cc1 -48.2%
COC(=O)C1=C(O)/C(=C/c2cccc(OC)c2O)N=C1C -32%
CCOc1ccc(C(=O)Nc2c3c(nn2-c2ccccc2)CS(=O)(=O)C3)cc1 -30.8%
CCN(CC)CCOc1cc2c(nn1)Oc1ccccc1N2C -41.5%
CCN1CCN(c2cc(C)c3cc(NC(=S)N4CCCC(C)C4)ccc3n2)CC1 (stereo unspecified) -30.5%
Cc1ccc2ccc(C(Nc3ccccc3)c3ccc(F)cc3)c(O)c2n1 (stereo unspecified) -45.4%
COc1cccc(CC2(CO)CCCN(Cc3ccc(OC)c(C)c3OC)C2)c1 (stereo unspecified) -35.3%
CCOC(=O)c1[nH]c2ccc(OC)cc2c1NC(=S)N1CCN(c2ccccc2)CC1 -31.6%
COc1ccc(-n2c(Cc3cccn3C)nnc2SCC(=O)Nc2ccccc2F)cc1 -31.8%
CCC(=O)Nc1cccc(NC(=O)CSc2nnnn2C)c1 -37.6%
CN(C)c1ccc(CN(C(=O)c2ccco2)C2CCS(=O)(=O)C2)cc1 (stereo unspecified) -32.8%
COc1cc(-c2nc(-c3ccc4c(c3)-c3ccccc3S4(=O)=O)c(-c3ccccc3)[nH]2)cc(OC)c1O -45.4%
CC1CC(C)CN(CCCNC(=O)C2CCC(=O)N2C2CCCC2)C1 (stereo unspecified) -46.7%

Max response, negative = inhibition, inactive:
Cc1ccc(C)c2[nH]c(=O)c(C(c3nnnn3Cc3ccco3)N3CCc4ccccc4C3)cc12 (stereo unspecified) 1.9%
Cc1ccnc(SC2CC(=O)N(c3ccc(C(C)C)cc3)C2=O)n1 (stereo unspecified) -12.4%
CNC[C@H](CC1CCCCC1)NC[C@H](Cc1ccccc1)NCCC12CC3CC(CC(C3)C1)C2 0%
Cc1cc(NC(=O)C(C)C)ncc1NC(=O)Cc1ccccc1 -9.19%
OC(CN1CCc2ccccc2C1)c1ccccc1 (stereo unspecified) -24.3%
CC(C)CCOP(=O)(c1ccc(N(C)C)cc1)C(O)c1ccccc1F (stereo unspecified) 4.98%
O=C(Nc1nnc(SCc2ccccn2)s1)C1CC(=O)N(c2ccccc2)C1 (stereo unspecified) 10.6%
CCOc1ccc(N(Cc2cc3ccc(C)cc3[nH]c2=O)S(=O)(=O)c2ccccc2)cc1 -1.34%
Cn1c(-c2cccc([N+](=O)[O-])c2)[n+](C)c2ccccc21 4.73%
C/C(=N\Nc1ccc([N+](=O)[O-])cc1)c1ccco1 -20.9%
Cc1c(C(=O)Nc2ccncc2)sc2nc(-c3ccccc3)cn12 12.8%
Cc1cc(NCCCN2CCOCC2)n2nc(C)c(-c3ccccc3)c2n1 0%
O=C(CN1CCN(C(=O)c2ccccc2Cl)CC1)Nc1cccc(S(=O)(=O)N2CCCC2)c1 32.4%
Cc1ccc(NCCC(=O)c2cccc([N+](=O)[O-])c2)cc1 -6.97%
CN(C)c1ccc(NC(=O)Nc2csc3ccccc23)cc1 -15%
CC(OC(=O)c1cccc(S(=O)(=O)N2CCOCC2)c1)C(=O)NC1CCCCC1C (stereo unspecified) 9.27%
COc1ccc(-c2cc(C(F)(F)F)c3c(N)c(C(=O)NCCSC)sc3n2)cc1 28.5%
CC[n+]1ccc(/C=C/c2ccc(N(C)C)cc2)c2ccccc21 -3.12%
Cc1ccc(-n2ncc3c(SCc4ccccn4)ncnc32)c(C)c1 10.8%
COc1ccccc1C(=O)NCC(=O)OC(C)C(=O)NC1CCCCC1C (stereo unspecified) -19.6%

Some of these compounds in order of length of the SMILES, rising:
Max response, negative = inhibition, inactive:
Cc1ccnc(SC2CC(=O)N(c3ccc(C(C)C)cc3)C2=O)n1 (stereo unspecified) -12.4%
COc1ccc(-c2cc(C(F)(F)F)c3c(N)c(C(=O)NCCSC)sc3n2)cc1 28.5%
CNC[C@H](CC1CCCCC1)NC[C@H](Cc1ccccc1)NCCC12CC3CC(CC(C3)C1)C2 0%
